In US12708641B2 (priority 2020, dated 2026):
Some results were stated once for a whole list of compounds, not compound by compound. At least one structure is not confirmed: it was looked up by name or label, or the drawing left a doubt.

System: Huh7 cells
Assay: viability evaluation (MTS/PMS) of replicon RNA-transfected Huh7 cells, Example 2
Format: cell-based
Conditions: highest tested concentration 50 μM
Text: Obtained values are expressed as percent inhibition of untreated RNA-transfected control condition.

`CCOc1nc(N)nc2c1ncn2[C@@H]1O[C@]2(F)CO[P@@](=O)(NCC(=O)OC(C)C)O[C@H]2[C@@]1(C)F` [Compound 5] was tested, and the CC50 was > 50 µM.
